Source: PMC12500454
No constants are given. Whether binding was seen depends on the method and setting. Binding seen in cells or lysates may run through a third protein. Some results given as binding are weak or reduced against the parent protein; the word gives no strength.

Chains of the proteins cited; added tags and fusions are not shown.
UniProt Q8BUN5: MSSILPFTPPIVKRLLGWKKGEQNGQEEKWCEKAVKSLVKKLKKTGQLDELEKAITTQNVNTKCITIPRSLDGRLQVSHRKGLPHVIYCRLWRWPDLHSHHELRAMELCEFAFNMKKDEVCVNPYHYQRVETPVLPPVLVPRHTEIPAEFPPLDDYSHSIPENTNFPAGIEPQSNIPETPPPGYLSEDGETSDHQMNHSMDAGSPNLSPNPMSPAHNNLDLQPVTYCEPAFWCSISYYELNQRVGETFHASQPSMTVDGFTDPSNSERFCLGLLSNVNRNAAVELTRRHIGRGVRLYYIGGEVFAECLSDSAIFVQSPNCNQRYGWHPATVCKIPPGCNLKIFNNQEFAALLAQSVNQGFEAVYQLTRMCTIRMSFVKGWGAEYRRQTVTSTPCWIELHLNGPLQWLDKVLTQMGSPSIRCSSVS
UniProt P58462: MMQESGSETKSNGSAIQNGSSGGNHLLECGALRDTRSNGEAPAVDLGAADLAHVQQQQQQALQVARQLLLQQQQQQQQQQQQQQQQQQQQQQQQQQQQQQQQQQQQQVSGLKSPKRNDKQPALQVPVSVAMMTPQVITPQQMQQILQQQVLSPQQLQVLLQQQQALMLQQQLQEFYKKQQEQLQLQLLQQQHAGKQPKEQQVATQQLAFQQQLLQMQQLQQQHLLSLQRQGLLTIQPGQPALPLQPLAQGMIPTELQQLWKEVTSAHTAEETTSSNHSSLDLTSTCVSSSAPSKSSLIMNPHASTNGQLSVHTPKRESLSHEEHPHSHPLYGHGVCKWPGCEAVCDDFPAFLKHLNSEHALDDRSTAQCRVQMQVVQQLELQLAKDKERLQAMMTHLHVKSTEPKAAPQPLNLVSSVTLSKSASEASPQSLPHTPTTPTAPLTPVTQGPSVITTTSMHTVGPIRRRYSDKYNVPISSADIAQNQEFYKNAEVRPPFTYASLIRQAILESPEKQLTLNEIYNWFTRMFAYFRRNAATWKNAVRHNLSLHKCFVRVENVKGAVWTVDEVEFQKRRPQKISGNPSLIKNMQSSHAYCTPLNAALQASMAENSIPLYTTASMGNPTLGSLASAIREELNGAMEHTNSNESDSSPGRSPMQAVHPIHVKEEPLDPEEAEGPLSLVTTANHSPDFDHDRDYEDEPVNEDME

Molecular target: Smad3 (mouse (endogenous in primary mouse mesangial cells)) (UniProt Q8BUN5)
Test: co-IP; nuclear protein of primary mouse mesangial cells with or without TGFβ1 (6 h); immunoprecipitated with 1 µg Smad3 antibody overnight at 4 °C, protein G-agarose 2 h at 4 °C; immunoblot for FoxP1 or Stat5

binding: binds
Substance: forkhead box transcription factor 1 (FoxP1) (from UniProt P58462 1-705)
